Measurements from “University of Dundee, Small-Polar-MMV Screening Library” (2021), ChEMBL document CHEMBL3988442.

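Whole-cell assay for inhibitors of Mycobacterium tuberculosis growth, labelled Cornell in the record; the read-out is not stated. The concentration is filed as 10 mM, unlikely as a test dose, so the dose is not known. The record gives no direction; compounds strong in two other growth screens of this library score well above the rest, so higher reads as stronger inhibition. Of about 53,000 compounds tested this way, about 900 (1.7%) reached 50% or more in at least one test.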

Each number is a percent effect as filed. The controls that fix the scale are not given in the record; negative values are as filed. Compounds were drawn at random from those tested, without regard to their results.

structure | effect
OC1(CN2CCC(Oc3cccc(C(F)(F)F)c3)CC2)CCNC1 (configuration not stated) | -3.822
CCOC(=O)CCNC(=O)N1CCCC(CNC(=O)c2ccco2)C1 (configuration not stated) | -18.44
CCC[C@H]1CN(Cc2ccccc2C#N)C[C@@H]1NS(C)(=O)=O | -14.4
Cc1nonc1CN(C)Cc1nc(-c2cccc(F)c2F)oc1C | 4.128
COc1cccc2c1OCC(CNC(=O)CSc1nc(N)n[nH]1)C2 (configuration not stated) | 14.76
NC(=O)c1nc(CN2CCOC(C(F)(F)F)C2)no1 (configuration not stated) | -26.3
COc1ncc(CN2CCOC(C)(C(=O)N3CCOCC3)C2)cn1 (configuration not stated) | -52.55
CN1CCC(c2n[nH]cc2-c2ccnc(N)c2)C1 (configuration not stated) | 1.755
Cc1nn2c(N3CCS(=O)(=O)CC3)cc(-c3ccccc3)nc2c1C | -12.29
NC(=O)CN1CCCC1c1ccccc1Br (configuration not stated) | 23.86
[H][C@@]12CCC(=O)N(CCCOC)[C@]1([H])CCN(c1cc(C(N)=O)ccn1)C2 | 12.04
[H][C@]12CC[C@]([H])(CN(S(C)(=O)=O)C1)N(CCC(=O)NCc1ccccc1F)C2 | -10.89
CCn1ccnc1CN1CCCN(C(=O)c2cccc(C#N)c2)CC1 | 6.165
CCOC(=O)CCCNC(=O)CN1CCN(c2ncccn2)CC1 | 8.579
[H][C@@]12CS(=O)(=O)C[C@]1([H])N(C(=O)c1cc(Cl)no1)CCN2C(=O)C(C)C | -22.79
Cc1cnc(NC(=O)N2CCOCC2)s1 | -25.31
COc1ccc(Cl)cc1NC(=O)CCC1CCCN(Cc2ncon2)C1 (configuration not stated) | 14
O=C(CCC(=O)N1CCC(c2noc3cc(F)ccc23)CC1)NC1CC1 | -23.4
COc1ccc2c(C)c(C(=O)NC3CCOCC3)oc2c1 | -14
Cn1nnc2c1CCN(C(=O)C1CCC1)C2COCCN1CCCC1.O=C(O)C(F)(F)F (configuration not stated) | 12.6
Cc1cnn(CCNCc2ccc(S(C)(=O)=O)cc2)c1 | -4.676
CC1CCCCN1Cc1nc(C2CC2)no1 (configuration not stated) | 25.93
Cc1noc(C)c1CCC(=O)NCC1(O)CCN(c2ccccn2)C1 (configuration not stated) | 1.254
Cc1noc(C)c1-c1cc(CCC2CN(C(=O)C(C)C)CCO2)ncn1 (configuration not stated) | 37.61
CN1Cc2cc(F)ccc2N(CC(C)(C)O)CCC1=O | -13.2
Cc1cccc(NC(=O)CNC(=O)Cn2ncc(Cl)c(Cl)c2=O)c1C | 19.1
CC(C)CC(=O)N1CC(=O)c2sc(NC3CCCCC3)nc2C1 | -42.75
CNC(=O)NC1CC2(CCNCC2)c2ccc(C)cc21 (configuration not stated) | -22.05
Cc1noc(C)c1CNc1ccc2nc(C3CC3)sc2c1 | 25.89
CC(NC(=O)NCc1cccc(CN2CCCC2)c1)c1nccs1 (configuration not stated) | 1.308
[H][C@]12CCN(C(=O)NC(C)C)CC[C@@]1([H])S(=O)(=O)N(Cc1cccc(Cl)c1)C2 | -6.994
CCCC(=O)N(CCCN1CCOCC1)c1nc2c(C)c(C)ccc2s1.Cl | 69.7
COc1cccnc1NC(=O)c1ccc(COCC(F)(F)F)cc1 | -6.137
O=C(Cn1cccn1)N1CCC(Oc2cnccn2)CC1 | 7.282
COCCN(Cc1ccccc1)C(=O)c1cnn(C)c1C | 4.616
Cc1nc(-c2cnn(C)c2)sc1C(=O)NCc1ccc(C)n1C | 21.45
CN(Cc1cccc(Cl)c1)C(=O)Cn1nc(-c2ccc(F)cc2)oc1=O | 13.83
O=C(NCCc1cc(N2CCOCC2)nc(NC2CC2)n1)C1CCCO1 (configuration not stated) | 34.16
CN(C)C(=O)N1CCc2c(nnn2C)C1COCC1CC1 (configuration not stated) | -0.7092
Cc1noc(C)c1CN1CC2(CCN(Cc3c[nH]cn3)CC2)CC1=O | 8.775
N#Cc1ccc(CN2CCC(CCc3ccc(O)cc3)CC2)cc1 | -18.74
CNC(=O)[C@@H]1CN(Cc2ccccc2)C[C@H]1C(=O)c1ccc(F)cc1 | 28.54
CN(Cc1ccco1)C(=O)CN1C(=O)c2cc(Cl)c(Cl)cc2C1=O | 12.11
CN1C(=O)CC2(CCN(S(=O)(=O)c3cccs3)CC2)c2ccccc21 | 19
O=C(Cc1ccsc1)N1CCn2cc(CN3CCCC3)nc2C1 | 20.22
O=C1N(CCc2ccccc2)CCCC12CCN(C(CO)CO)C2 (configuration not stated) | 7.219
Cc1ccnc(NC(=O)c2ccc(F)c(S(=O)(=O)NC3CC3)c2)c1 | 0.261
COc1ccc(OC)c2c(C)cc(N(C)CCCO)nc12 | 15.91
COCCC(=O)N1CCC(C(=O)c2cc(C)cnc2N)CC1 | -12.09
CCCc1ccc(CN2CCC3(CC2)CNC(=O)C3)o1 | -20.73
OCCN(Cc1ccccc1)Cc1nc(-c2ccc3c(c2)OCO3)no1 | 9.359
Cc1cc2c(=O)n3c(nc2s1)CCN(C(=O)c1ccncc1)CC3 | 6.499
CC(C)CC(NC(=O)c1ccco1)c1nc2cccnc2n1C (configuration not stated) | 10.47
Cc1cc(C)n(CC2CN(CC3CCCC3)CCO2)n1 (configuration not stated) | -6.212
COCC(=O)N1CCC2(CCC2NC(=O)c2ccn(C)c2)CC1 (configuration not stated) | 13.13
O=S1(=O)[C@@H](c2ccccc2)[C@H](CO)CN1C1CC1 | 7.581
NC(=O)c1cccc(CCNC(=O)N2Cc3ccccc3C2)c1 | 3.574
O=C(Nc1ccccc1)N1CCC(N2Cc3ncccc3C2=O)CC1 | 1.562
CC(Cn1ccnc1)NCc1nncn1C1CCCCC1 (configuration not stated) | 17.77
COc1cccc(CN(C)C(=O)c2csc(-c3nnc[nH]3)n2)c1 | 5.455
C=C(C)CNc1nc(CS(=O)(=O)c2ccccc2)cs1 | 8.279
CC(=O)N1CCc2ccc(S(=O)(=O)N3CCCCC3C)cc21 (configuration not stated) | 25.2

Some entries from above, unchanged:

{"structure": "O=C1N(CCc2ccccc2)CCCC12CCN(C(CO)CO)C2", "stereo": "configuration not stated", "effect": 7.219}
{"structure": "OC1(CN2CCC(Oc3cccc(C(F)(F)F)c3)CC2)CCNC1", "stereo": "configuration not stated", "effect": -3.822}
{"structure": "[H][C@@]12CCC(=O)N(CCCOC)[C@]1([H])CCN(c1cc(C(N)=O)ccn1)C2", "effect": 12.04}
{"structure": "O=S1(=O)[C@@H](c2ccccc2)[C@H](CO)CN1C1CC1", "effect": 7.581}